From patent publication US20180236024A1
Results are given in words; binding and its absence hold for the method and conditions named. Binding seen in cells or lysates may run through a third protein. Some results given as binding are weak or reduced against the parent protein; the word gives no strength. For some assays here: Where a sequence is shown, tags or fusion partners need not be part of it.

Amino acid sequences for entries named in this document (tags omitted). Residues count along the entry.
UniProt Q9C0C7: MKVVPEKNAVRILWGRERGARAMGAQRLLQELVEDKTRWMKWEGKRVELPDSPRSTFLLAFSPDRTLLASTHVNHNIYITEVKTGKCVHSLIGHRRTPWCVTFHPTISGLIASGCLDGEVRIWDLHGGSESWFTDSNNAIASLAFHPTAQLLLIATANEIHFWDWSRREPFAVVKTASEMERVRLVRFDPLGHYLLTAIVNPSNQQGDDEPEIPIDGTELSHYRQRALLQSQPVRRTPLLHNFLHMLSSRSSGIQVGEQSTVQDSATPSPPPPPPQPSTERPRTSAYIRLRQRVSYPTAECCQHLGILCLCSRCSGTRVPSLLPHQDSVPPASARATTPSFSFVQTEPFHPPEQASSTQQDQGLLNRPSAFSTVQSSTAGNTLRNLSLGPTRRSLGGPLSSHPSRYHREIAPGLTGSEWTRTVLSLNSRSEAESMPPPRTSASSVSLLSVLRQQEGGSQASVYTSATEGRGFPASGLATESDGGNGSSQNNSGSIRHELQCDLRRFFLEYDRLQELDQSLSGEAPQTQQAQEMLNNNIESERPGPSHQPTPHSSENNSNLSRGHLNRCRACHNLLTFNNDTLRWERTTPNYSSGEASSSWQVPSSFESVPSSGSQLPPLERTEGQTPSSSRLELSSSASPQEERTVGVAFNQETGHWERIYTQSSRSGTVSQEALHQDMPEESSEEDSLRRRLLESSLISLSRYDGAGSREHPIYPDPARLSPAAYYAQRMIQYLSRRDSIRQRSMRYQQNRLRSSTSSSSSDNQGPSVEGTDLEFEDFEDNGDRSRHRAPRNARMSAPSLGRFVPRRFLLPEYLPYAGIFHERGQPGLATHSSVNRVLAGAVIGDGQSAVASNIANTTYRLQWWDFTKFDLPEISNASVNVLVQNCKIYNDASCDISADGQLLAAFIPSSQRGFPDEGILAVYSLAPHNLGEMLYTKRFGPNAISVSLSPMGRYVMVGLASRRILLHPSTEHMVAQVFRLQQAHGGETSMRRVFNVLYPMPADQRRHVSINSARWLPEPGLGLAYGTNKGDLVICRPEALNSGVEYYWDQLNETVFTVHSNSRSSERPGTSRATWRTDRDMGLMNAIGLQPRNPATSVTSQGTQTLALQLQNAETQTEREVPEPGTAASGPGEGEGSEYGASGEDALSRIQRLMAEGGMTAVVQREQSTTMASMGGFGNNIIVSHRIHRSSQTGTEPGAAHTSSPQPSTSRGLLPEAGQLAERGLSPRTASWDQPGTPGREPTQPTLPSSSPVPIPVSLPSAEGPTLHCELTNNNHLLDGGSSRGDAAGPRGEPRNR
UniProt Q14457, residues 144-450: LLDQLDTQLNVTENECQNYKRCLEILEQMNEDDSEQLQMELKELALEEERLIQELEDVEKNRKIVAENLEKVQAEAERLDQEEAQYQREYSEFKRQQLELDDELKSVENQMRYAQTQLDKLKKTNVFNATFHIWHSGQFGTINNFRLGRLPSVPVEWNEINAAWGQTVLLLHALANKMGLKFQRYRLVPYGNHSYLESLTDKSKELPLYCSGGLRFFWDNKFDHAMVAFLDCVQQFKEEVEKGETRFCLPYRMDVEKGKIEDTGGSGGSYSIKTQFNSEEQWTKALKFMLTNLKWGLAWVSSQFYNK
UniProt Q9HC29: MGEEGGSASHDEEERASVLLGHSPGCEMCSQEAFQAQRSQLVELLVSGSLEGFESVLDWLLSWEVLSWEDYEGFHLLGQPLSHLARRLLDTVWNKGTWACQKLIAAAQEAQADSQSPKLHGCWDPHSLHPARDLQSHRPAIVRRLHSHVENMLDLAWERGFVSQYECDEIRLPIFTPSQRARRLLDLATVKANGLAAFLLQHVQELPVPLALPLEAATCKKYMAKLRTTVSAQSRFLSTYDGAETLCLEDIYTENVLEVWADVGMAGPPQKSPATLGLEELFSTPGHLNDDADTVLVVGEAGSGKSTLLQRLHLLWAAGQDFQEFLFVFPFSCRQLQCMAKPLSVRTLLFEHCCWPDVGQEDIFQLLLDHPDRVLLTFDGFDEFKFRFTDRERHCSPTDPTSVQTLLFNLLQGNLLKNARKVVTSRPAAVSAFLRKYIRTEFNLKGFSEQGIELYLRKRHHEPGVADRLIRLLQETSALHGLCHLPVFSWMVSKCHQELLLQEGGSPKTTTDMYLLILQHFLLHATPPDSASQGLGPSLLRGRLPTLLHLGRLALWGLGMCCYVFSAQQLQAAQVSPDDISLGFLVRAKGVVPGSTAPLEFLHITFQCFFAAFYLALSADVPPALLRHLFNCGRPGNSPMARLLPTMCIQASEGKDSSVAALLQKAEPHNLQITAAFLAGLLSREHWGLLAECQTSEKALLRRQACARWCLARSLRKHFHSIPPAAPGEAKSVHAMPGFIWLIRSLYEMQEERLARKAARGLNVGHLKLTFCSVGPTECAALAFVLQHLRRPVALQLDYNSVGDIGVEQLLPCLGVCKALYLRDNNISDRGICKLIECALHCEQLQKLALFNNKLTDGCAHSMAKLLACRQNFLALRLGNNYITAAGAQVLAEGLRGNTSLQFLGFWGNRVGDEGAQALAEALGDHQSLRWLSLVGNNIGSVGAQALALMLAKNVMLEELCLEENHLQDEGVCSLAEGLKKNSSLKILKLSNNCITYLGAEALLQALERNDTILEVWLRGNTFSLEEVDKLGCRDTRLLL

What was measured:
[1] = molecular target: AMBRA1 (UniProt Q9C0C7); experiment: co-IP of endogenous proteins, THP-1
[2] = molecular target: Beclin 1 segment encompassing CCD and ECD (UniProt Q14457); experiment: co-IP of Flag-Beclin 1 variants with GFP-IRGM
[3] = molecular target: AMBRA1 (UniProt Q9C0C7); experiment: co-immunoprecipitation, HEK293T lysates
[4] = molecular target: NOD2 (full length) (UniProt Q9HC29); experiment: Flag pull-down, affinity purified Flag-NOD2 variants and purified GST-IRGM
[5] = molecular target: T1, ULK1 (UniProt O75385); experiment: co-immunoprecipitation, HEK293 cell extracts
T1 sequence (looked up): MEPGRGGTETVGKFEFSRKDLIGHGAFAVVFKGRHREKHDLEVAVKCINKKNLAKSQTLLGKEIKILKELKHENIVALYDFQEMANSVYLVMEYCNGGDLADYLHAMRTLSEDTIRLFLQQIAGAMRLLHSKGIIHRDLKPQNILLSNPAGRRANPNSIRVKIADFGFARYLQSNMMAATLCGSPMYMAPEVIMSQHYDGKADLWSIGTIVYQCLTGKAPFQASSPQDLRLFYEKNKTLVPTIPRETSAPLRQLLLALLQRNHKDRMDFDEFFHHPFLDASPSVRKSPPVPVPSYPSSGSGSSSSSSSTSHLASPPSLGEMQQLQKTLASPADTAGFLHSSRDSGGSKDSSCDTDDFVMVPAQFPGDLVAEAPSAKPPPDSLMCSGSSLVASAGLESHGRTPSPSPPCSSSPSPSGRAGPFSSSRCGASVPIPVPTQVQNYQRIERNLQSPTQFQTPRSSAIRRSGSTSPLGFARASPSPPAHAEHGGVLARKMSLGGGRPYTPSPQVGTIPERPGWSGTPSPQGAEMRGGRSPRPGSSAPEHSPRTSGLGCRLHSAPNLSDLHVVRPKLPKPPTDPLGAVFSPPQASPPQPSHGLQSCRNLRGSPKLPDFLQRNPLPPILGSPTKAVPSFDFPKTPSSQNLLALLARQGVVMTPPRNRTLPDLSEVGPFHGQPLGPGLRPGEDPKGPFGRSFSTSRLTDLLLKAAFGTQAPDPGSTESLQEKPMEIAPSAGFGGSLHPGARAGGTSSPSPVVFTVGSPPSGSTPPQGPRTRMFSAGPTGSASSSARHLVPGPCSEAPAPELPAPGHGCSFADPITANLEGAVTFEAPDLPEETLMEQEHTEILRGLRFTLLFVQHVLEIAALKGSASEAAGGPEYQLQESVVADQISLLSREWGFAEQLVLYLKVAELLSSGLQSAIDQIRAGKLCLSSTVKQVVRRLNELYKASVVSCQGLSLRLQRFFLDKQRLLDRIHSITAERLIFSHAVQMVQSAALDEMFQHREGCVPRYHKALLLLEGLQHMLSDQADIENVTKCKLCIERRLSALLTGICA

[6] = molecular target: T2, p-ULK1 (Ser-317) (UniProt O75385); experiment: co-IP with anti-GFP, HEK293 cells
T2 sequence (phosphoserine at 317, looked up): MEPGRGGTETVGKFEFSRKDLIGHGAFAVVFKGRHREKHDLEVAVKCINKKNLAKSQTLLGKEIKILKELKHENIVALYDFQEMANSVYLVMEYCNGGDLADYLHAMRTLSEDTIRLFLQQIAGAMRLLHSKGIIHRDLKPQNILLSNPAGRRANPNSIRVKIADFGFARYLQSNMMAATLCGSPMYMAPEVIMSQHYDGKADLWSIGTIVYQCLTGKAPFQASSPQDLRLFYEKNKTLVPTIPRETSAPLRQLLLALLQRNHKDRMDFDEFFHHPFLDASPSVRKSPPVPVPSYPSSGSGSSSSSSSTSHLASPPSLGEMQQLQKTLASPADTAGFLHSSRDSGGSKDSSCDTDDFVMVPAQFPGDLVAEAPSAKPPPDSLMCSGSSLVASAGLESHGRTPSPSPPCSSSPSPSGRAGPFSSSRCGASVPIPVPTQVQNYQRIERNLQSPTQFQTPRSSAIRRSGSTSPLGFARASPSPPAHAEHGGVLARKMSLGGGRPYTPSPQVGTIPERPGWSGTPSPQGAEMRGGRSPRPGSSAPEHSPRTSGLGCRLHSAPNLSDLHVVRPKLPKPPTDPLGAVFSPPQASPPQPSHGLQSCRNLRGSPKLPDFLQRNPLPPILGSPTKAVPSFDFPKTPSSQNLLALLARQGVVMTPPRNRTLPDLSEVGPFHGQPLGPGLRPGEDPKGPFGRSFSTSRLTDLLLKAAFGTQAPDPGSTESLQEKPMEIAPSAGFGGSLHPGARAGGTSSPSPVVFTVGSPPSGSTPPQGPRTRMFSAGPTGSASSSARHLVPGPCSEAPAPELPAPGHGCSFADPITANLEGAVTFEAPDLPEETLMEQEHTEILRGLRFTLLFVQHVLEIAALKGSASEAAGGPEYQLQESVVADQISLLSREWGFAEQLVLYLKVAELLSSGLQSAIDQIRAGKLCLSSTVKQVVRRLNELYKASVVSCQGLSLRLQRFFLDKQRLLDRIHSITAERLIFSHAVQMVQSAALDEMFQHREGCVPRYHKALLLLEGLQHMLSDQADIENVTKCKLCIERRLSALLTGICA

[7] = molecular target: T1, ULK1; experiment: co-IP with anti-GFP, HEK293 cells
[8] = molecular target: T3, p-ULK1 (Ser-555) (UniProt O75385); experiment: co-IP with anti-GFP, HEK293 cells
T3 sequence (phosphoserine at 555, looked up): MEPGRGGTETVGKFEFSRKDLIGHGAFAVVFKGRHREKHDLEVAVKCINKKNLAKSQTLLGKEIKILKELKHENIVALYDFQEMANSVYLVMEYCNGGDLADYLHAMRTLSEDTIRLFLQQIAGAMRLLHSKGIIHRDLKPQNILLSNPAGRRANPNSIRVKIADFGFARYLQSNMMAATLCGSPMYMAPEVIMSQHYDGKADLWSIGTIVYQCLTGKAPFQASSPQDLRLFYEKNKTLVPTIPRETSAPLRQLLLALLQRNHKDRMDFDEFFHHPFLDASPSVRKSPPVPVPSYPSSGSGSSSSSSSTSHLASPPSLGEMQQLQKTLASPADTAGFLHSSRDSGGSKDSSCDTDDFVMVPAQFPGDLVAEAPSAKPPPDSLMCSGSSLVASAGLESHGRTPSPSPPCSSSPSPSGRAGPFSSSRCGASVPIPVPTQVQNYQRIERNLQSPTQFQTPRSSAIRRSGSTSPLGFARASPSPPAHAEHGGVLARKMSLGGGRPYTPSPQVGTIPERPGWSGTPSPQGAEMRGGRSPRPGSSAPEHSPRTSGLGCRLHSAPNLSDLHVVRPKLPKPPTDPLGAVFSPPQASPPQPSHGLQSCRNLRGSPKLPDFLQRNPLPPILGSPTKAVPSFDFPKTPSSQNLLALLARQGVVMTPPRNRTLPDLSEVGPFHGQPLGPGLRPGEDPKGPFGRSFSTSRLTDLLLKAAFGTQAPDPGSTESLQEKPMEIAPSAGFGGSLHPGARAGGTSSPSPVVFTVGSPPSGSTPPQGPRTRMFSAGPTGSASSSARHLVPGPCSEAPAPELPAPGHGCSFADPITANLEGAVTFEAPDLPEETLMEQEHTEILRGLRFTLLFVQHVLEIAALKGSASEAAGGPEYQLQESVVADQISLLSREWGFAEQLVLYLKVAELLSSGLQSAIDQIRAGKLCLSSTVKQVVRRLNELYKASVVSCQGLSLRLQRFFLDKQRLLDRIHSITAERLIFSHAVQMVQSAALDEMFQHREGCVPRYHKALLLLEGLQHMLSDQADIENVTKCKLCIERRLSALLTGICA

[9] = molecular target: T1, ULK1; experiment: co-IP and GST pull-down (figure legend)
[10] = molecular target: T1, ULK1; experiment: co-IP of GFP-TRIM20 with endogenous ULK1 (figure legend)
[11] = molecular target: T2, p-ULK1 (Ser-317); experiment: co-immunoprecipitation, HEK293 cells

Measured: binding

B1: IRGM (human IRGM, isoform d) (protein, UniProt A1A4Y4-4 1-202, looked up)
chain: MEAMNVEKASADGNLPEVISNIKETLKIVSRTPVNITMAGDSGNGMSTFISALRNTGHEGKASPPTELVKATQRCASYFSSHFSNVVLWDLPGTGSATTTLENYLMEMQFNRYDFIMVASAQFSMNHVMLAKTAEDMGKKFYIVWTKLDMDLSTGALPEVQLLQIRENVLENLQKERLACHEKYLKSTPENSTRPRNINLCS
binds: [1] | [2] | [3]

B2: purified recombinant GST-IRGM (GST-IRGMd), prepared from insect cells (protein, human, UniProt A1A4Y4-4 1-202, looked up, not shown: a dimerising Fc or GST)
chain: MEAMNVEKASADGNLPEVISNIKETLKIVSRTPVNITMAGDSGNGMSTFISALRNTGHEGKASPPTELVKATQRCASYFSSHFSNVVLWDLPGTGSATTTLENYLMEMQFNRYDFIMVASAQFSMNHVMLAKTAEDMGKKFYIVWTKLDMDLSTGALPEVQLLQIRENVLENLQKERLACHEKYLKSTPENSTRPRNINLCS
binds: [4]

B3: GFP-TRIM20 (full-length human TRIM20) (protein, not shown: large carriers)
chain: MAKTPSDHLLSTLEELVPYDFEKFKFKLQNTSVQKEHSRIPRSQIQRARPVKMATLLVTYYGEEYAVQLTLQVLRAINQRLLAEELHRAAIQEYSTQENGTDDSAASSSLGENKPRSLKTPDHPEGNEGNGPRPYGGGAASLRCSQPEAGRGLSRKPLSKRREKASEGLDAQGKPRTRSPALPGGRSPGPCRALEGGQAEVRLRRNASSAGRLQGLAGGAPGQKECRPFEVYLPSGKMRPRSLEVTISTGEKAPANPEILLTLEEKTAANLDSATEPRARPTPDGGASADLKEGPGNPEHSVTGRPPDTAASPRCHAQEGDPVDGTCVRDSCSFPEAVSGHPQASGSRSPGCPRCQDSHERKSPGSLSPQPLPQCKRHLKQVQLLFCEDHDEPICLICSLSQEHQGHRVRPIEEVALEHKKKIQKQLEHLKKLRKSGEEQRSYGEEKAVSFLKQTEALKQRVQRKLEQVYYFLEQQEHFFVASLEDVGQMVGQIRKAYDTRVSQDIALLDALIGELEAKECQSEWELLQDIGDILHRAKTVPVPEKWTTPQEIKQKIQLLHQKSEFVEKSTKYFSETLRSEMEMFNVPELIGAQAHAVNVILDAETAYPNLIFSDDLKSVRLGNKWERLPDGPQRFDSCIIVLGSPSFLSGRRYWEVEVGDKTAWILGACKTSISRKGNMTLSPENGYWVVIMMKENEYQASSVPPTRLLIKEPPKRVGIFVDYRVGSISFYNVTARSHIYTFASCSFSGPLQPIFSPGTRDGGKNTAPLTICPVGGQGPD
not listed: [1] | [2] | [3] | [4]
binds: all other assays above
